Laboratory results published in PMC10235086.
These are yes or no findings as the source states them, for the method shown. Binding seen in cells or lysates may run through a third protein. A yes stands for co-enrichment or nearness to the bait. Other partners may have been found.

T1: ProteinA-Rio1 (S. cerevisiae) (UniProt Q12196)
T1 sequence: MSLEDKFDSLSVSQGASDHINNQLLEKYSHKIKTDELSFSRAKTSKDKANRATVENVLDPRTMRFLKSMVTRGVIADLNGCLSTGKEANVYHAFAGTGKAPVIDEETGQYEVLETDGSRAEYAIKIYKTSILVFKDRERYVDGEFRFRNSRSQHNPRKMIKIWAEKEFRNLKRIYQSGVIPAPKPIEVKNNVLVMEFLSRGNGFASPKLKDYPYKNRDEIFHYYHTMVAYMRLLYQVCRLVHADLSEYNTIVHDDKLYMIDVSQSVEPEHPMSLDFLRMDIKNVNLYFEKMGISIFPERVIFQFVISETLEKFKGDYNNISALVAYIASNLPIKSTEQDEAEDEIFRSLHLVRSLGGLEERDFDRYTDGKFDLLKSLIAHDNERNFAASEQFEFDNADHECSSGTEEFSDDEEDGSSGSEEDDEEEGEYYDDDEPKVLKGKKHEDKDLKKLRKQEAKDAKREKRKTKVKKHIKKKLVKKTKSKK


Biological target: T1, ProteinA-Rio1 (S. cerevisiae)
Assay: affinity purification with mass spectrometry; ProteinA-Rio1 expressed from PGAL1-10 (2% galactose, 2 h) in pep4∆ yeast; cleared lysate (50 mM Tris-Cl pH 7.5, 10% glycerol, 150 mM NaCl, 1 mM DTT, 0.4% NP-40) on rabbit IgG agarose beads overnight at 4 °C; washed with PBS-T; on-bead digestion …; untagged Rio1 as negative control; three independent purifications

Binder | binding
Fun30 (protein, UniProt P31380 1-1131) MSGSHSNDEDDVVQVPETSSPTKVASSSPLKPTSPTVPDASVASLRSRFTFKPSDPSEGAHTSKPLPSGSPEVALVNLAREFPDFSQTLVQAVFKSNSFNLQSARERLTRLRQQRQNWTWNKNASPKKSETPPPVKKSLPLANTGRLSSIHGNINNKSSKITVAKQKTSIFDRYSNVINQKQYTFELPTNLNIDSEALSKLPVNYNKKRRLVRADQHPIGKSYESSATQLGSAREKLLANRKYGRHANDNDEEEEESMMTDDDDASGDDYTESTPQINLDEQVLQFINDSDIVDLSDLSDTTMHKAQLIASHRPYSSLNAFVNTNFNDKDTEENASNKRKRRAAASANESERLLDKITQSIRGYNAIESVIKKCSSYGDLVTSQMKKWGVQVEGDNSELDLMNLGEDDDDDNDDGNNDNNNSNNNNTAGADATSKEKEDTKAVVEGFDETSAEPTPAPAPAPVERETKRIRNTTKPKVVEDEDDDVDLEAIDDELPQSEHEDDDYEEEDEDYNDEEEDVEYDDGDDDDDDDDEFVATRKNTHVISTTSRNGRKPIVKFFKGKPRLLSPEISLKDYQQTGINWLNLLYQNKMSCILADDMGLGKTCQVISFFAYLKQINEPGPHLVVVPSSTLENWLREFQKFAPALKIEPYYGSLQEREELRDILERNAGKYDVIVTTYNLAAGNKYDVSFLKNRNFNVVVYDEGHMLKNSTSERFAKLMKIRANFRLLLTGTPLQNNLKELMSLLEFIMPNLFISKKESFDAIFKQRAKTTDDNKNHNPLLAQEAITRAKTMMKPFILRRRKDQVLKHLPPKHTHIQYCELNAIQKKIYDKEIQIVLEHKRMIKDGELPKDAKEKSKLQSSSSKNLIMALRKASLHPLLFRNIYNDKIITKMSDAILDEPAYAENGNKEYIKEDMSYMTDFELHKLCCNFPNTLSKYQLHNDEWMQSGKIDALKKLLKTIIVDKQEKVLIFSLFTQVLDILEMVLSTLDYKFLRLDGSTQVNDRQLLIDKFYEDKDIPIFILSTKAGGFGINLVCANNVIIFDQSFNPHDDRQAADRAHRVGQTKEVNITTLITKDSIEEKIHQLAKNKLALDSYISEDKKSQDVLESKVSDMLEDIIYDENSKPKGTKE | binds
Smc2 (protein, UniProt P38989 1-1170) MKVEELIIDGFKSYATRTVITDWDPQFNAITGLNGSGKSNILDAICFVLGIASMSTVRASSLQDLIYKRGQAGVTKASVTIVFDNTDKSNSPIGFTNSPQISVTRQVVLGGTSKYLINGHRAPQQSVLQLFQSVQLNINNPNFLIMQGKITKVLNMKPSEILSLIEEAAGTKMFEDRREKAERTMSKKETKLQENRTLLTEEIEPKLEKLRNEKRMFLEFQSTQTDLEKTERIVVSYEYYNIKHKHTSIRETLENGETRMKMLNEFVKKTSEEIDSLNEDVEEIKLQKEKELHKEGTISKLENKENGLLNEISRLKTSLSIKVENLNDTTEKSKALESEIASSSAKLIEKKSAYANTEKDYKMVQEQLSKQRDLYKRKEELVSTLTTGISSTGAADGGYNAQLAKAKTELNEVSLAIKKSSMKMELLKKELLTIEPKLKEATKDNELNVKHVKQCQETCDKLRARLVEYGFDPSRIKDLKQREDKLKSHYYQTCKNSEYLKRRVTNLEFNYTKPYPNFEASFVHGVVGQLFQIDNDNIRYATALQTCAGGRLFNVVVQDSQTATQLLERGRLRKRVTIIPLDKIYTRPISSQVLDLAKKIAPGKVELAINLIRFDESITKAMEFIFGNSLICEDPETAKKITFHPKIRARSITLQGDVYDPEGTLSGGSRNTSESLLVDIQKYNQIQKQIETIQADLNHVTEELQTQYATSQKTKTIQSDLNLSLHKLDLAKRNLDANPSSQIIARNEEILRDIGECENEIKTKQMSLKKCQEEVSTIEKDMKEYDSDKGSKLNELKKELKLLAKELEEQESESERKYDLFQNLELETEQLSSELDSNKTLLHNHLKSIESLKLENSDLEGKIRGVEDDLVTVQTELNEEKKRLMDIDDELNELETLIKKKQDEKKSSELELQKLVHDLNKYKSNTNNMEKIIEDLRQKHEFLEDFDLVRNIVKQNEGIDLDTYRERSKQLNEKFQELRKKVNPNIMNMIENVEKKEAALKTMIKTIEKDKMKIQETISKLNEYKRETLVKTWEKVTLDFGNIFADLLPNSFAKLVPCEGKDVTQGLEVKVKLGNIWKESLIELSGGQRSLIALSLIMALLQFRPAPMYILDEVDAALDLSHTQNIGHLIKTRFKGSQFIVVSLKEGMFANANRVFRTRFQDGTSVVSIM | binds
Smc4 (protein, UniProt Q12267 1-1418) MSDSPLSKRQKRKSAQEPELSLDQGDAEEDSQVENRVNLSENTPEPDLPALEASYSKSYTPRKLVLSSGENRYAFSQPTNSTTTSLHVPNLQPPKTSSRGRDHKSYSQSPPRSPGRSPTRRLELLQLSPVKNSRVELQKIYDRHQSSSKQQSRLFINELVLENFKSYAGKQVVGPFHTSFSAVVGPNGSGKSNVIDSMLFVFGFRANKMRQDRLSDLIHKSEAFPSLQSCSVAVHFQYVIDESSGTSRIDEEKPGLIITRKAFKNNSSKYYINEKESSYTEVTKLLKNEGIDLDHKRFLILQGEVENIAQMKPKAEKESDDGLLEYLEDIIGTANYKPLIEERMGQIENLNEVCLEKENRFEIVDREKNSLESGKETALEFLEKEKQLTLLRSKLFQFKLLQSNSKLASTLEKISSSNKDLEDEKMKFQESLKKVDEIKAQRKEIKDRISSCSSKEKTLVLERRELEGTRVSLEERTKNLVSKMEKAEKTLKSTKHSISEAENMLEELRGQQTEHETEIKDLTQLLEKERSILDDIKLSLKDKTKNISAEIIRHEKELEPWDLQLQEKESQIQLAESELSLLEETQAKLKKNVETLEEKILAKKTHKQELQDLILDLKKKLNSLKDERSQGEKNFTSAHLKLKEMQKVLNAHRQRAMEARSSLSKAQNKSKVLTALSRLQKSGRINGFHGRLGDLGVIDDSFDVAISTACPRLDDVVVDTVECAQHCIDYLRKNKLGYARFILLDRLRQFNLQPISTPENVPRLFDLVKPKNPKFSNAFYSVLRDTLVAQNLKQANNVAYGKKRFRVVTVDGKLIDISGTMSGGGNHVAKGLMKLGTNQSDKVDDYTPEEVDKIERELSERENNFRVASDTVHEMEEELKKLRDHEPDLESQISKAEMEADSLASELTLAEQQVKEAEMAYVKAVSDKAQLNVVMKNLERLRGEYNDLQSETKTKKEKIKGLQDEIMKIGGIKLQMQNSKVESVCQKLDILVAKLKKVKSASKKSGGDVVKFQKLLQNSERDVELSSDELKVIEEQLKHTKLALAENDTNMNETLNLKVELKEQSEQLKEQMEDMEESINEFKSIEIEMKNKLEKLNSLLTYIKSEITQQEKGLNELSIRDVTHTLGMLDDNKMDSVKEDVKNNQELDQEYRSCETQDESEIKDAETSCDNYHPMNIDETSDEVSRGIPRLSEDELRELDVELIESKINELSYYVEETNVDIGVLEEYARRLAEFKRRKLDLNNAVQKRDEVKEQLGILKKKRFDEFMAGFNIISMTLKEMYQMITMGGNAELELVDSLDPFSEGVTFSVMPPKKSWRNITNLSGGEKTLSSLALVFALHKYKPTPLYVMDEIDAALDFRNVSIVANYIKERTKNAQFIVISLRNNMFELAQQLVGVYKRDNRTKSTTIKNIDILNRT | binds
Brn1 (protein, UniProt P38170 1-754) MTTQLRYENNDDDERVEYNLFTNRSTMMANFEEWIKMATDNKINSRNSWNFALIDYFYDLDVLKDGENNINFQKASATLDGCIKIYSSRVDSVTTETGKLLSGLAQRKTNGASNGDDSNGGNGEGLGGDSDEANIEIDPLTGMPISNDPDVNNTRRRVYNRVLETTLVEFETIKMKELDQELIIDPLFKKALVDFDEGGAKSLLLNTLNIDNTARVIFDASIKDTQNVGQGKLQRKEEELIERDSLVDDENEPSQSLISTRNDSTVNDSVISAPSMEDEILSLGMDFIKFDQIAVCEISGSIEQLRNVVEDINQAKDFIENVNNRFDNFLTEEELQAAVPDNAEDDSDGFDMGMQQELCYPDENHDNTSHDEQDDDNVNSTTGSIFEKDLMAYFDENLNRNWRGREHWKVRNFKKANLVNKESDLLEETRTTIGDTTDKNTTDDKSMDTKKKHKQKKVLEIDFFKTDDSFEDKVFASKGRTKIDMPIKNRKNDTHYLLPDDFHFSTDRITRLFIKPGQKMSLFSHRKHTRGDVSSGLFEKSTVSANHSNNDIPTIADEHFWADNYERKEQEEKEKEQSKEVGDVVGGALDNPFEDDMDGVDFNQAFEGTDDNEEASVKLDLQDDEDHKFPIRENKVTYSRVSKKVDVRRLKKNVWRSINNLIQEHDSRKNREQSSNDSETHTEDESTKELKFSDIIQGISKMYSDDTLKDISTSFCFICLLHLANEHGLQITHTENYNDLIVNYEDLATTQAAS | binds
Ycs4 (protein, UniProt Q06156 1-1176) MSGFSLSEYLTKFQTTDRESYPRLQDPSRELNVIIDQLAVSPEQIDASPDSLEALIDLCHDFPHLTPKLQTQLSYLISSSLSNLSKDIKANLSSNVNFTEIGGLIPQWKRHLEEYGYLIQVLLTFLQDELHKVSSQSTNLNRSAKNSKNDSANVELFKRDCNQMENLLESITKLLEINLSKIFQTTPEKDLFIGLFTRPLFVLLEIEPVTKVSSLKMFIQRILAMCVKNHGQSSSIQSSLMTNLTYFLHLSVFNAELLKLLNDEYNYPQLTEDILKEISTRVFNAKDTTGPKAISNFLIKLSELSPGIMLRQMNLVITLLNNSSITLRCSVVEACGNIVAELAQDPQTMEHYKQQIAVLIELLEERFQDSNPYVRTKAIQGCSKICDLSSKFNKSKAKFTSLAVRSLQDRSSLVRRNSVKLLSKLLLKHPFKAIHGSQLRLSEWEEYLKGSESQLNSTLKKVESQETLNDTIERSLIEEEVEQDEGQCRTELEGSFNKSAELSRIENEVENINATNTSVLMKLKLMIVYYKDAISFIKEIHKSIELISNLLFSKNRNEVLESMDFLVLADAFDIELSEFGIKKMLHLVWMKGTNDEGTSISVHLIECYKQLFLTAPDSCNMQEKAAHIAKNLINLSIGASIADLASLEQLLGMMYEQKLIDQHVINILWAIYNSASKASMQKEQNVNNRDSEKGFSKEQIHGSIIILGMLSLADNEIALKGLESLLNIGLGAVGLKDLTLCRYSCLALERMVPKRSTIITKAINQELEDVAVKKLYAIIINYTKDNEYYPMCEQALSALFTISSKPDILATDLIREKTMMTFGKPEEEDSILSLEQSSRVVSLSQLLFIVGQVAIKTLVYLEKCEAEFKKRKIEAETRNGKVKNQGADVTNTTQDNGGDKELEMIGGTNEDDFTDAIQFVKENELLFGEKSILGKFCPIVEEIVSNSSRFSDPMLQRTATLCLEKLMCLSSKYCEKSLPLLITVMEKSPDPTIRSNAVLGLGDMAVCFNNLVDENTDYLYRRLHDENLMVQRTCLMTVTFLILAGQVKVKGQLGEMAKCLDNPDQGISDMCRLFFTELASKDNAIYNGFIDIFSNLSSDDLLGKESFKKIIKFLLTFIDKERHQKQLNEKLVGRLRKCETQKQWDDIAFVLNNLPYKNEDVTALLEQGFKVVSAKE | binds
